Here are results for two molecules from publication PMC7265330.

Protein sequences, listed by entry. Tags and fused reporters are not part of them.
UniProt P14635: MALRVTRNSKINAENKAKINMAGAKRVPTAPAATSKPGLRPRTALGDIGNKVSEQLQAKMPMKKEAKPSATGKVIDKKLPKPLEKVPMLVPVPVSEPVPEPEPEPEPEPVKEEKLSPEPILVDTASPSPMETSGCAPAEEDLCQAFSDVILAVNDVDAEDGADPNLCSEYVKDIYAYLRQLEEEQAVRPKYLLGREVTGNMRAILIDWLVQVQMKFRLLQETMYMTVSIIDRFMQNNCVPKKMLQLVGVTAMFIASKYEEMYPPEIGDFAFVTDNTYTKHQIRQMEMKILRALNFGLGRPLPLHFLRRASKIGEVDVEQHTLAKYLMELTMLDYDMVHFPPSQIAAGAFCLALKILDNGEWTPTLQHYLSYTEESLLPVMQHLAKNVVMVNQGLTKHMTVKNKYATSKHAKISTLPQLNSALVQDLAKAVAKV

These are yes or no findings as the source states them, for the method shown. In cells and extracts the contact can be indirect. A yes stands for co-enrichment or nearness to the bait. Other partners may have been found. A no says only that the protein was not detected with the bait.

This experiment concerns the target cyclin B1 (RPE cyclin B1-Venus+/−:Ruby-MAD2+/− cells) (human (endogenous in RPE1)) (UniProt P14635). The experiment in a line: affinity purification with mass spectrometry; CCNB1 immunoprecipitates from RPE cells (WT, MAD1 E53/56K clones D2 and B12) against IgG control; on-bead trypsin digest, TMT labelling, quantitative LC-MS/MS; three biologically independent experiments.

B1: MAD1 (parental RPE cells) (protein, UniProt Q9Y6D9 1-718)
chain: MEDLGENTMVLSTLRSLNNFISQRVEGGSGLDISTSAPGSLQMQYQQSMQLEERAEQIRSKSHLIQVEREKMQMELSHKRARVELERAASTSARNYEREVDRNQELLTRIRQLQEREAGAEEKMQEQLERNRQCQQNLDAASKRLREKEDSLAQAGETINALKGRISELQWSVMDQEMRVKRLESEKQELQEQLDLQHKKCQEANQKIQELQASQEARADHEQQIKDLEQKLSLQEQDAAIVKNMKSELVRLPRLERELKQLREESAHLREMRETNGLLQEELEGLQRKLGRQEKMQETLVGLELENERLLAKLQSWERLDQTMGLSIRTPEDLSRFVVELQQRELALKDKNSAVTSSARGLEKARQQLQEELRQVSGQLLEERKKRETHEALARRLQKRVLLLTKERDGMRAILGSYDSELTPAEYSPQLTRRMREAEDMVQKVHSHSAEMEAQLSQALEELGGQKQRADMLEMELKMLKSQSSSAEQSFLFSREEADTLRLKVEELEGERSRLEEEKRMLEAQLERRALQGDYDQSRTKVLHMSLNPTSVARQRLREDHSQLQAECERLRGLLRAMERGGTVPADLEAAAASLPSSKEVAELKKQVESAELKNQRLKEVFQTKIQEFRKACYTLTGYQIDITTENQYRLTSLYAEHPGDCLIFKATSPSGSKMQLLETEFSHTVGELIEVHLRRQDSIPAFLSSLTLELFSRQTVA
With B1, the binding result is given as “binds”.

B2: MAD1 E53K/E56K (RPE clones 7D2 and 8B12) (protein, UniProt Q9Y6D9 1-718)
chain: MEDLGENTMVLSTLRSLNNFISQRVEGGSGLDISTSAPGSLQMQYQQSMQLEKRAKQIRSKSHLIQVEREKMQMELSHKRARVELERAASTSARNYEREVDRNQELLTRIRQLQEREAGAEEKMQEQLERNRQCQQNLDAASKRLREKEDSLAQAGETINALKGRISELQWSVMDQEMRVKRLESEKQELQEQLDLQHKKCQEANQKIQELQASQEARADHEQQIKDLEQKLSLQEQDAAIVKNMKSELVRLPRLERELKQLREESAHLREMRETNGLLQEELEGLQRKLGRQEKMQETLVGLELENERLLAKLQSWERLDQTMGLSIRTPEDLSRFVVELQQRELALKDKNSAVTSSARGLEKARQQLQEELRQVSGQLLEERKKRETHEALARRLQKRVLLLTKERDGMRAILGSYDSELTPAEYSPQLTRRMREAEDMVQKVHSHSAEMEAQLSQALEELGGQKQRADMLEMELKMLKSQSSSAEQSFLFSREEADTLRLKVEELEGERSRLEEEKRMLEAQLERRALQGDYDQSRTKVLHMSLNPTSVARQRLREDHSQLQAECERLRGLLRAMERGGTVPADLEAAAASLPSSKEVAELKKQVESAELKNQRLKEVFQTKIQEFRKACYTLTGYQIDITTENQYRLTSLYAEHPGDCLIFKATSPSGSKMQLLETEFSHTVGELIEVHLRRQDSIPAFLSSLTLELFSRQTVA
With B2, the binding entry was “no binding”.
